# For part of these data: At least one result comes from cells or an extract, where the contact may be indirect. Construct, isoform or probe ends are uncertain for at least one entry. For part of these data: A negative result means that nothing was seen under these conditions. For part of these data: A weaker result is weaker than the reference pair of the same experiment.
# Chains of the proteins cited; added tags and fusions are not shown. A line that says so, or that is headed by a name, gives the form on record, which may keep a tag or linker.
# CD3 epsilon/gamma heterodimer (Homo sapiens), one chain, as listed by the source, chain 1 of 2: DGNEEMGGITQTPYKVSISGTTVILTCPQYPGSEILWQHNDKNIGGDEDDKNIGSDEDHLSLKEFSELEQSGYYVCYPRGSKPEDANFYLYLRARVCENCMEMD
# CD3 complex on EL4 cells (Mus musculus), one chain, as listed by the source, chain 3 of 3: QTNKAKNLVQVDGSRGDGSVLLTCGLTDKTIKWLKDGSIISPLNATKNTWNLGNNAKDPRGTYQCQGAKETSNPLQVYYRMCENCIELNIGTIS
# CD3 complex on EL4 cells (Mus musculus), one chain, as listed by the source, chain 2 of 3: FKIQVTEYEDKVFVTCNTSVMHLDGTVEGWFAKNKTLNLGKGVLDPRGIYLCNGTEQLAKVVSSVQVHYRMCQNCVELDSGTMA
# CD3 complex on EL4 cells (Mus musculus), one chain, as listed by the source, chain 1 of 3: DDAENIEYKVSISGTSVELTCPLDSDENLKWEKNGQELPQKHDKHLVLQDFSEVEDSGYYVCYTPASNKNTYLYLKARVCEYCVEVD
# CD3 epsilon/gamma heterodimer (Homo sapiens), one chain, as listed by the source, chain 2 of 2: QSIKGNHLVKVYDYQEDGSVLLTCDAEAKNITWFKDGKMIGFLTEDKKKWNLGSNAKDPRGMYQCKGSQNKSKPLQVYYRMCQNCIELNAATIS
# Tests used:
# [1] = system: IgG1 Fc (counter target) (Homo sapiens); test: SPR; conditions: purified recombinant protein, protein details: AcroBiosystems
# [2] = system: CD3 epsilon/delta heterodimer (Homo sapiens); test: SPR; conditions: 2'-F pyrimidines; kinetic, DPBS; purified recombinant protein; protein details: C-terminal human IgG1 Fc fusion, AcroBiosystems; label: 5'-biotin-TEG
# [3] = system: CD3 epsilon/delta heterodimer (Mus musculus); test: SPR; conditions: 2'-F pyrimidines; kinetic, DPBS; purified recombinant protein; protein details: Sino Biological; label: 5'-biotin-TEG
# [4] = system: CD3 epsilon/gamma heterodimer (Homo sapiens); test: SPR; conditions: 2'-F pyrimidines; kinetic, DPBS; purified recombinant protein; protein details: C-terminal human IgG1 Fc fusion, AcroBiosystems; label: 5'-biotin-TEG
# [5] = system: CD3 complex on Jurkat cells (Homo sapiens); test: flow cytometry; conditions: protein on the cell surface, protein details: Jurkat ATCC TIB-152
# [6] = system: CD3 complex on EL4 cells (Mus musculus); test: flow cytometry; conditions: dose-dependent staining 3-300 nM, protein on the cell surface, protein details: EL4 ATCC CRL-2638, label: 5'-biotin-TEG
# [7] = 2'-F pyrimidines, NA, DPBS, label: 5'-biotin-TEG
# [8] = preferential binding vs Ramos, label: 5'-biotin-TEG, single-stranded DNA
# [9] = higher specificity to Jurkat than Ramos, label: 5'-biotin-TEG, single-stranded DNA
# [10] = _ is abasic C3 spacer, loss of binding, 50 and 100 nM, label: 5'-biotin-TEG, single-stranded DNA, variant of CELTIC_core
# [11] = loss of specificity, label: 5'-biotin-TEG, single-stranded DNA, variant of CELTIC_core
# [12] = 50 and 100 nM, SELEX buffer 5% FBS, 37 C, label: 5'-biotin-TEG, single-stranded DNA, variant of CELTIC_core
sequence,measurement,setting,value
CAAAGUUCAAGAUUGAGCUUUUUGCAGCGAUUCUUGUUUUAUCAAACGA [ARACD3-0270039],binding result,[1]; [7],no binding
same,Kd,[2],189 nM
same,Kd,[3],17.7 nM
same,Kd,[4],150 nM
GGTCGGGTGCTACTGAGCGATTGGCTTTCCGGACTGGGGA [CELTIC_21s],binding result,"[5]; specificity improved by removing flanks, label: 5'-biotin-TEG, single-stranded DNA, variant of CELTIC_21",binds
GAGGGGTTTGGCATCGGGCCTGGCGCCATTCAAGCTATGC [CELTIC_2s],binding result,"[5]; specificity improved by removing flanks, label: 5'-biotin-TEG, single-stranded DNA, variant of CELTIC_2",binds
TAGGGAAGAGAAGGACATATGATGGTCGGGTGCTACTGAGCGATTGGCTTTCCGGACTGGGGATTGACTAGTACATGACCACTTGA [CELTIC_21],binding result,[5]; [8],binds
UUCAAGAUAAUGUAAUUAUUUUUGCAGCGAUUCUUGUUUUGUUCGAUUU [ARACD3-2980001],binding result,[1]; [7],no binding
same,Kd,[2],239 nM
same,Kd,[3],26.5 nM
same,Kd,[4],231 nM
GGAGTGGAGTATTCCGGGTTTGGCATCGGGCCTGGCGAAG [CELTIC_4s],binding result,[5]; [9],binds
same,binding result,[6]; single-stranded DNA,binds
GGGTTTGGCACCGGCCTGGC [CELTIC_core_10],binding result,[5]; [10],no binding
GGGTTTGGCATCGGGTCTGGC [CELTIC_core_40t],binding result,"[5]; 5'-HEG, 3'-3' dT, label: 5'-biotin-TEG, single-stranded DNA, variant of CELTIC_core_40",binds
GGGTTTGCACCGGGCCTGGC [CELTIC_core_8],binding result,[5]; [10],no binding
GGGTTTGGCACGGGCTGGC [CELTIC_core_42],binding result,"[1]; _ is abasic C3 spacer at positions 11 and 16, 5'-HEG, NA, label: biotin, single-stranded DNA, variant of CELTIC_core",no binding
TACCGCGGGGATTGGCTCCGGGCCTGGCGTCGTAATCTGA [CELTIC_19s],binding result,[5]; [9],binds
same,binding result,[6]; single-stranded DNA,binds
GGGTTTGGCACCGGGCCTGGCGC [CELTIC_core_1],binding result,[5]; [11],binds
TAGGGAAGAGAAGGACATATGATGAGGGGTTTGGCATCGGGCCTGGCGCCATTCAAGCTATGCTTGACTAGTACATGACCACTTGA [CELTIC_2],binding result,[5]; [8],binds
AAGGGATTGGCGTCGGGCCTGGCGTAAGGAGGCTATGCTC [CELTIC_6s],binding result,[5]; [9],binds
TAGGGAAGAGAAGGACATATGATGCGTAAGGGTTTGGCAGCGGGCCTGGCGGAACGCGTGTATTTGACTAGTACATGACCACTTGA [CELTIC_3],binding result,"[5]; apparent, preferential over CD3-negative Ramos, label: 5'-biotin-TEG, single-stranded DNA",binds
GGGTTTGGCACCGGCCTGGC [CELTIC_core_11],binding result,[5]; [10],no binding
TTTGGGTTTGGCATCGGGCCTGGC [CELTIC_core_T],binding result,"[5]; binding properties as core, label: 5'-biotin-TEG, single-stranded DNA, variant of …",binds
GGGTTTGGCATCGGGTCTGGC [CELTIC_core_40],binding result,"[5]; 5'-HEG, improved affinity and specificity vs core, label: 5'-biotin-TEG, single-stranded DNA, variant of CELTIC_core",binds
GGGTTTGGCATGGGCCTGGC [CELTIC_core_25],binding result,"[5]; _ is abasic C3 spacer at position 12, 5'-HEG, reduced affinity, 50 and 100 nM, label: biotin, single-stranded DNA, variant of CELTIC_core",binds more weakly
GGGTTTGGCACCGGGCCTGGC [CELTIC_core_2],binding result,[5]; [12],no binding
GGGTTTGGCGGTGGGCCTGGC [CELTIC_core_5],binding result,[5]; [12],no binding
GGGTTTGGCATCGGGGCTGGC [CELTIC_core_39],binding result,"[5]; 5'-HEG, reduced affinity, 50 and 100 nM, label: biotin, single-stranded DNA, variant of CELTIC_core",binds more weakly
GGGTTTGGCACCGGGCTGGC [CELTIC_core_13],binding result,"[5]; _ is abasic C3 spacer, 50 and 100 nM, SELEX buffer 5% FBS, 37 C, label: 5'-biotin-TEG, single-stranded DNA, variant of CELTIC_core",no binding
GGGTTTGGCAACGGGCTGGC [CELTIC_core_44],binding result,"[5]; 5'-HEG, affinity loss vs core, label: 5'-biotin-TEG, single-stranded DNA, variant of CELTIC_core",binds more weakly
TTTGGGTTTGGCACCGGGCCTGGC [CELTIC_core_6],binding result,[5]; [12],no binding
TTTCCGGGTGGGGGTTTGGCACCGGGCCTGGCGCAGGGATTCG [CELTIC_1s],binding result,"[5]; preferential binding vs Ramos, not competed by OKT3, UCHT1, HIT3a, label: 5'-biotin-TEG, single-stranded DNA, variant of CELTIC_1",binds
same,binding result,"[6]; single-stranded DNA, variant of CELTIC_1",binds
GGGTTTGGCACCGGGCTGGC [CELTIC_core_12],binding result,"[5]; _ is abasic C3 spacer (position 16), better affinity than core, reduced specificity, label: 5'-biotin-TEG, single-stranded DNA, variant of CELTIC_core",binds
same,binding result,"[1]; _ is abasic C3 spacer at position 16, NA, label: 5'-biotin-TEG, single-stranded DNA, variant of CELTIC_core",no binding
GGGTTTGGCATCGGGACTGGC [CELTIC_core_38],binding result,"[5]; 5'-HEG, no impact of C16A, label: 5'-biotin-TEG, single-stranded DNA, variant of CELTIC_core",binds
UCUAAGCAAUAUUGUUUGCUUUUGCAGCGAUUCUGUUUCGAUAUAUUA [ARACD3-0010209],binding result,"[5]; 2'-F pyrimidines, label: 5'-biotin-TEG",binds
same,binding result,"[6]; 2'-F pyrimidines, DPBS",binds
same,binding result,[1]; [7],no binding
same,Kd,[2],22 nM
same,Kd,[4],20.6 nM
GGGTTTGGACCGGGCCTGGC [CELTIC_core_9],binding result,[5]; [10],no binding
GGGTTTGGCATCGGGCCTGGCG [CELTIC_core_4],binding result,[5]; [11],binds
GCATCGAAATGGGGTTGGCACCGGGCCTGGCGAATTGGAT [CELTIC_9s],binding result,[5]; [9],binds
same,binding result,[6]; single-stranded DNA,binds
GGGTTTGGCTCGGGCCTGGC [CELTIC_core_23],binding result,"[5]; _ is abasic C3 spacer at position 10, 5'-HEG, reduced affinity, 50 and 100 nM, label: biotin, single-stranded DNA, variant of CELTIC_core",binds more weakly
GCGTAAGGGTTTGGCAGCGGGCCTGGCGGAACGCGTGTAT [CELTIC_3s],binding result,"[5]; specificity improved by removing flanks, label: 5'-biotin-TEG, single-stranded DNA, variant of CELTIC_3",binds
GATGGAGGGTTTGGCGGTGGGCCTGGCAAGTTATCTCATA [CELTIC_11s],binding result,[5]; [9],binds
GGGTTTGCACCGGGCCTGGC [CELTIC_core_7],binding result,[5]; [10],no binding
TAGGGAAGAGAAGGACATATGATCCGGGTGGGGGTTTGGCACCGGGCCTGGCGCAGGGATTCGTTGACTAGTACATGACCACTTGA [CELTIC_1],binding result,"[5]; preferential binding vs CD3-negative Ramos, label: 5'-biotin-TEG, single-stranded DNA",binds
CGGCAGGGGTTTGGCTCCGGGTCTGGCGAACTGGCTGAGA [CELTIC_5s],binding result,[5]; [9],binds
GGGTTTGGCACGGGCCTGGC [CELTIC_core_24t],binding result,"[1]; _ is abasic C3 spacer (position 11), 5'-HEG, 3'-3' dT, no interaction observed, label: 5'-biotin-TEG, single-stranded DNA, variant of CELTIC_core_24",no binding
GGGTTTGGCATCGGGCTGGC [CELTIC_core_29],binding result,"[5]; _ is abasic C3 spacer (position 16), 5'-HEG, equal or improved affinity and specificity vs core, label: 5'-biotin-TEG, single-stranded DNA, variant of CELTIC_core",binds
same,binding result,"[1]; _ is abasic C3 spacer (position 16), 5'-HEG, no interaction observed, label: 5'-biotin-TEG, single-stranded DNA, variant of CELTIC_core",no binding
GGGTTTGGCACGGGCCTGGC [CELTIC_core_24],binding result,"[5]; _ is abasic C3 spacer (position 11), 5'-HEG, equal or improved affinity and specificity vs core, label: 5'-biotin-TEG, single-stranded DNA, variant of CELTIC_core",binds
same,binding result,"[1]; _ is abasic C3 spacer (position 11), 5'-HEG, no interaction observed, label: 5'-biotin-TEG, single-stranded DNA, variant of CELTIC_core",no binding
GGGTTTGGCACGGGCTGGC [CELTIC_core_42t],binding result,"[5]; _ is abasic C3 spacer (positions 11 and 16), 5'-HEG, 3'-3' dT, label: 5'-biotin-TEG, single-stranded DNA, variant of CELTIC_core_42",binds
same,binding result,"[1]; _ is abasic C3 spacer (positions 11 and 16), 5'-HEG, 3'-3' dT, no interaction observed, label: 5'-biotin-TEG, single-stranded DNA, variant of CELTIC_core_42",no binding
